Assay results from the supplement of paper PMC10849652.
The other results are listed elsewhere or left out.

The chains behind the UniProt entries cited, without tags or fusion partners. Where a name states a change or a piece, a line headed by the entry shows the natural chain unless it says otherwise.
UniProt O15357: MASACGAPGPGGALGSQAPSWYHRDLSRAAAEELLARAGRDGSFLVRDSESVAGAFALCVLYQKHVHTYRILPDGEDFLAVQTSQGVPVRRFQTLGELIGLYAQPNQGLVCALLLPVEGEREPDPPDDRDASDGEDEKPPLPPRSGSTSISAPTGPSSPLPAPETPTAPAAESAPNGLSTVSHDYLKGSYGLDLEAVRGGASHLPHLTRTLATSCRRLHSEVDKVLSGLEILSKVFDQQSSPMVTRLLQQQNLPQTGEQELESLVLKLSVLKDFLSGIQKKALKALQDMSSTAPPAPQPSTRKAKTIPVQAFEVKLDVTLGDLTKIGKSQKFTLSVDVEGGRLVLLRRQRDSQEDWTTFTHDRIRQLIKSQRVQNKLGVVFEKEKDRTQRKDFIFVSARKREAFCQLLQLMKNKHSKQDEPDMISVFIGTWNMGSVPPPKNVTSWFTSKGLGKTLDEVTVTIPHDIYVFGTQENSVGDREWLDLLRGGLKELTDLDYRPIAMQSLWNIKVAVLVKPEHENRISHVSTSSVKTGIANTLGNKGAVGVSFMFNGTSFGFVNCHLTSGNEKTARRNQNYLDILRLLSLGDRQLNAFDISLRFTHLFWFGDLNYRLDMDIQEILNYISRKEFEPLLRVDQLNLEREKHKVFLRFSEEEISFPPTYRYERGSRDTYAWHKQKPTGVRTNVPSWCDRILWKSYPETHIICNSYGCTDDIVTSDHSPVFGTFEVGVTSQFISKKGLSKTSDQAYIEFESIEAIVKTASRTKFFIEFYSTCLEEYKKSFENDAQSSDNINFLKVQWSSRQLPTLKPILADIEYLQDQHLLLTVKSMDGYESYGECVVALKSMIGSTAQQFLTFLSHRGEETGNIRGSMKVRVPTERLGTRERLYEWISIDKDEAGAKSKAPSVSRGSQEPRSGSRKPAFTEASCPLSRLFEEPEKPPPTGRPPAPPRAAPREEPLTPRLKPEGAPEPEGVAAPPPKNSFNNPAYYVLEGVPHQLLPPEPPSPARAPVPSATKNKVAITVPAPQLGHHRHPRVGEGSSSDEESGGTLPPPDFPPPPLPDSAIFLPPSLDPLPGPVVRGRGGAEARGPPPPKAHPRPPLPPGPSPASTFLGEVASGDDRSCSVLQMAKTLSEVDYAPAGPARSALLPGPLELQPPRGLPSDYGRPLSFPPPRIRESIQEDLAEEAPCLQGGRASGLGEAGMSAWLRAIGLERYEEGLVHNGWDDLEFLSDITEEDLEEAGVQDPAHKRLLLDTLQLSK
UniProt Q13572: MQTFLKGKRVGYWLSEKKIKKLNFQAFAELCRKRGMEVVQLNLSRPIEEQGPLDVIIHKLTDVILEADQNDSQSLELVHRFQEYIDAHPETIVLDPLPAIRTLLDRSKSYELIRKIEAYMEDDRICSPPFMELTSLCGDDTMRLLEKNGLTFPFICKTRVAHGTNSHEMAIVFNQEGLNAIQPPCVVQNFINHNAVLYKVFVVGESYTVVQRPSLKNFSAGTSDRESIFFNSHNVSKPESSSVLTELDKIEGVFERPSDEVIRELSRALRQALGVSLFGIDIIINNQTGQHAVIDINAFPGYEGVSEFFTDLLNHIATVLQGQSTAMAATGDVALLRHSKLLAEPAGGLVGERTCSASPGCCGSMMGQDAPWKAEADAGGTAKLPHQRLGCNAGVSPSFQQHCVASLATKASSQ
UniProt Q7Z5L9: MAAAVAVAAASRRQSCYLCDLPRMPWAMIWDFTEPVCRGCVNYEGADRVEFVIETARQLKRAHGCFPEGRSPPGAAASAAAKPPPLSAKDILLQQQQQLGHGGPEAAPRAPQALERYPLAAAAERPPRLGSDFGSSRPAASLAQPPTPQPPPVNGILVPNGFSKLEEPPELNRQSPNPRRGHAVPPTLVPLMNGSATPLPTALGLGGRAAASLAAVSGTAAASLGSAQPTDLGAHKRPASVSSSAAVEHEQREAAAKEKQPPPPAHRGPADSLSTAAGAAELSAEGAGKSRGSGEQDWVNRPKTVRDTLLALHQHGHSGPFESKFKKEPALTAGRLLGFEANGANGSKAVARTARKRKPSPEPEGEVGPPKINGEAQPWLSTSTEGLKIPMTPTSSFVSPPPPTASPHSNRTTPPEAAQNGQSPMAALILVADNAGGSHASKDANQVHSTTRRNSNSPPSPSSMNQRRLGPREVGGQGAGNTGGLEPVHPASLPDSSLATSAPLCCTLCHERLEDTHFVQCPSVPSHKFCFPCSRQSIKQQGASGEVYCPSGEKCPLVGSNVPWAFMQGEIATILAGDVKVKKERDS
UniProt P53990, whole entry, looked up: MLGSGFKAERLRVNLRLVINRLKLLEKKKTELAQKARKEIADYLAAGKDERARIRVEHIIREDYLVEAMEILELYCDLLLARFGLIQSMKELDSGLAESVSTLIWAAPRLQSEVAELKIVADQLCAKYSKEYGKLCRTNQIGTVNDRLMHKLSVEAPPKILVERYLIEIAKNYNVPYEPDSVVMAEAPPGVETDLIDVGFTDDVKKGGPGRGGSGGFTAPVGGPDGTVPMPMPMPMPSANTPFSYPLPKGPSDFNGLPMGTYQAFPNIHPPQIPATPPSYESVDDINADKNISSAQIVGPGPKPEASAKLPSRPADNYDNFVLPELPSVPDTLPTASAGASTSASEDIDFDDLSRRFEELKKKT
UniProt Q9NZI8, whole entry, looked up: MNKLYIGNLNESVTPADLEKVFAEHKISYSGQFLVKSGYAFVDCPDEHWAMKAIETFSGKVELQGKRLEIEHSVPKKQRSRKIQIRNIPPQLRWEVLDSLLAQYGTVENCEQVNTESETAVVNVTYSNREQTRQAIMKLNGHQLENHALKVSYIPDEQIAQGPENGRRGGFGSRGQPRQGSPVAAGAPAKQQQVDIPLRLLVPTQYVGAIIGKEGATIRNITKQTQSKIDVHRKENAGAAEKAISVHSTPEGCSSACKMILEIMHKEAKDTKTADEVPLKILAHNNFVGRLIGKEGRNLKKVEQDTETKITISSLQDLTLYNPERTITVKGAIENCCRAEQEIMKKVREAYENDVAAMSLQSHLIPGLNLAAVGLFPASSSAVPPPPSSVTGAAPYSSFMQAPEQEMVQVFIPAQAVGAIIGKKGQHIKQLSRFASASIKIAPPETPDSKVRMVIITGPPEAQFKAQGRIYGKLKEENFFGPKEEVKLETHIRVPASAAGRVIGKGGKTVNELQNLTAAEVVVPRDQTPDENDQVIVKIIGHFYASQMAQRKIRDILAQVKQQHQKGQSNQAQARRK
UniProt Q14116, whole entry, looked up: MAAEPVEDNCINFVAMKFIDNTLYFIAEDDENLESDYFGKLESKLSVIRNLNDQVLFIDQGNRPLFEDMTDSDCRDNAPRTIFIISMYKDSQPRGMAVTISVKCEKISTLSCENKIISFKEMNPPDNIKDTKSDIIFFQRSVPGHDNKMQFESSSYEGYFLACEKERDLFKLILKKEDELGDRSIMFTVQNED
UniProt Q9NVR2, whole entry, looked up: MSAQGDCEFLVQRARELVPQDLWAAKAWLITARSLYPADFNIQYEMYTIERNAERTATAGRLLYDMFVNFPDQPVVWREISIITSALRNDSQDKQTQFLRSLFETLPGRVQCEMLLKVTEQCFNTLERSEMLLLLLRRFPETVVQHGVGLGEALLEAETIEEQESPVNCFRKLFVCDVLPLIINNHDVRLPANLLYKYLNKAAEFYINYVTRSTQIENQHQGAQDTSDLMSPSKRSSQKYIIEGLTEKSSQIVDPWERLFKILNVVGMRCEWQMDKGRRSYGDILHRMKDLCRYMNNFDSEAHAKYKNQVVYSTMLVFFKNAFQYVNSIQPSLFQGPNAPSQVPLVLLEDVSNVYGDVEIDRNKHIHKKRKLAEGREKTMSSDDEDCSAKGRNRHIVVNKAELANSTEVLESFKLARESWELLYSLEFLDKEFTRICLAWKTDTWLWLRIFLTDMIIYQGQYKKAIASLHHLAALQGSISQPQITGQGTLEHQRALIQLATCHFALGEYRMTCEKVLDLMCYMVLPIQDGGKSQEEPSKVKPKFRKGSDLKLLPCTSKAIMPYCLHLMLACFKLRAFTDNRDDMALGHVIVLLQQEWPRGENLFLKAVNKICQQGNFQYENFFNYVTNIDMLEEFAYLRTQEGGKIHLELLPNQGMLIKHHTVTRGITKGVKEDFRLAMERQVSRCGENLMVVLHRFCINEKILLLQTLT
UniProt Q9NVM9, whole entry, looked up: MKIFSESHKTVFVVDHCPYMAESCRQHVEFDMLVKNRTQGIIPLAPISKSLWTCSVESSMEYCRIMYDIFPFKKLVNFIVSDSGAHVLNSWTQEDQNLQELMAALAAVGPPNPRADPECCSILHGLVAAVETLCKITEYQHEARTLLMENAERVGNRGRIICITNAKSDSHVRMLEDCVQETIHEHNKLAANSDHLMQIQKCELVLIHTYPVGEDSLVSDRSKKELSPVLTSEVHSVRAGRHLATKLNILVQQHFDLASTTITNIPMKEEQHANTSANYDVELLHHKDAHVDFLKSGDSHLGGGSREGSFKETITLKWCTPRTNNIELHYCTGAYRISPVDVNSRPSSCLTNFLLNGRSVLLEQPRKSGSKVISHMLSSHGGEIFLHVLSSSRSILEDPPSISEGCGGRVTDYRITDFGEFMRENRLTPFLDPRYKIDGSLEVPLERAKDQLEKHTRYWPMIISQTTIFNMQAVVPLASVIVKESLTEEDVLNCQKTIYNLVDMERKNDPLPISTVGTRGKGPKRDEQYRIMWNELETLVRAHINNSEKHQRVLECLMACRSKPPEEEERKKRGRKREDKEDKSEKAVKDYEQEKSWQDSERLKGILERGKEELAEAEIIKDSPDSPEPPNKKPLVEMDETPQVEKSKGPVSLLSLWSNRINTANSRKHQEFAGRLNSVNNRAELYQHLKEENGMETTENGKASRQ
UniProt Q8TB96: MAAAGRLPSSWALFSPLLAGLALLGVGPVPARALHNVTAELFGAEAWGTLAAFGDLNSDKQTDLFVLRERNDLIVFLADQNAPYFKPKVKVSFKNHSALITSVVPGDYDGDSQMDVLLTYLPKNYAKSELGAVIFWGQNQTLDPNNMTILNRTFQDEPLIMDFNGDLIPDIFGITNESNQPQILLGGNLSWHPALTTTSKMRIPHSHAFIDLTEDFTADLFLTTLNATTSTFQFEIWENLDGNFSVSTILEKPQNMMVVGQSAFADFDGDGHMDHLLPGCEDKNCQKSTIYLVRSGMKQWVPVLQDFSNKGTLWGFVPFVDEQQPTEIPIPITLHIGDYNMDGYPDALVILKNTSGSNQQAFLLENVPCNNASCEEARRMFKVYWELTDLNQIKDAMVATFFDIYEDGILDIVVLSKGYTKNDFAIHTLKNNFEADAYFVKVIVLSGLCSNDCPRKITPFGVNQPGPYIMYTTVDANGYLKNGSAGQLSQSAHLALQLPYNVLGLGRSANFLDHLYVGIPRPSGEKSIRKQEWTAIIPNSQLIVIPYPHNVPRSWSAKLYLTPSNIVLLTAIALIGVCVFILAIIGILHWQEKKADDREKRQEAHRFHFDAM
UniProt P18084: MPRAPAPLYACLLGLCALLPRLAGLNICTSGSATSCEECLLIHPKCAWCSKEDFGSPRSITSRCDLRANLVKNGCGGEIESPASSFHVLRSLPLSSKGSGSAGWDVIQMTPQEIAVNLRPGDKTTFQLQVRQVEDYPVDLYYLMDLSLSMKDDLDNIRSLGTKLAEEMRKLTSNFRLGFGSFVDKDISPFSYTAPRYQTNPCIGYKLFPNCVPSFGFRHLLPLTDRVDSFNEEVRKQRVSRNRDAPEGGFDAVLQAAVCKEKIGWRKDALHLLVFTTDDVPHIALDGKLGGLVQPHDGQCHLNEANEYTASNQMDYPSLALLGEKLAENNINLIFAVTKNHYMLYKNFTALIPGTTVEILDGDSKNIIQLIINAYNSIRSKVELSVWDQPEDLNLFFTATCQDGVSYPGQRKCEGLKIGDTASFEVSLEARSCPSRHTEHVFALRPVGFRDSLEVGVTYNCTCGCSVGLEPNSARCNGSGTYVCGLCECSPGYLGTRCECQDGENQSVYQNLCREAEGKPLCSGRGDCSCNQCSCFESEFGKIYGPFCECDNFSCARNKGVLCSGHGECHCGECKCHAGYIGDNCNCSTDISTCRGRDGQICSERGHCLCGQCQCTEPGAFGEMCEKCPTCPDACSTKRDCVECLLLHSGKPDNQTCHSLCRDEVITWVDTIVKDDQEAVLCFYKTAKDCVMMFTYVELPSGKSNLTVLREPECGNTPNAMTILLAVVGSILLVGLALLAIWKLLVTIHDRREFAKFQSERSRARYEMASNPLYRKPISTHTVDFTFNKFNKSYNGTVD
UniProt P80217: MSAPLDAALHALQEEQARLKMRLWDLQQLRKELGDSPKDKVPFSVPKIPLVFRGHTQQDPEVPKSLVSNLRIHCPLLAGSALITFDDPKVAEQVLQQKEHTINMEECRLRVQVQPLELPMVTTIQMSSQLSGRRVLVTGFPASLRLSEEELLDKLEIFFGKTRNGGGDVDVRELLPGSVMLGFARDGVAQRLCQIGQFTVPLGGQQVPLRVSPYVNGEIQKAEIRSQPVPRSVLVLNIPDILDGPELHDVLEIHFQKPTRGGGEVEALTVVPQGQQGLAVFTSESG

Tests used:
Assay in all cases: log2 fold change, soluble protein after heating vs DMSO (PISA); higher = thermal stabilisation; K562 cells, 10 uM, 30 min; active = over 0.2 and 3.5 SD of the protein, either way, in both replicates (recomputed)
[1] = compound: CS(=O)(=O)c1ccc(-c2cnc(N)c(C(=O)Nc3ccccc3)n2)cc1
How it was run: (§1)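 Aliquots of K562 cells (2×10^6 cells/mL) treated with 10 μM compound for 30 min were heated for 3 min over 48°C-58°C. After pooling and extraction in PBS with 0.5% NP-40 at 4°C, soluble protein from a 21,000xg, 90 min spin was quantified by TMTpro 16plex LC-MS/MS with channel sums equalised. Thermal stability is expressed against control samples, from duplicates, as a log2 fold change.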

crizotinib = compound: C[C@@H](Oc1cc(-c2cnn(C3CCNCC3)c2)cnc1N)c1c(Cl)ccc(F)c1Cl [crizotinib]
How it was run: as §1

[2] = compound: C[C@@H]1COCCN1C2=NC(=NC(=C2)C3(CC3)S(=O)(=O)C)C4=C5C=CNC5=CC=C4
How it was run: as §1

[3] = compound: C[C@H](C1=CC=C(C=C1)C(=O)NC2=C3C=CNC3=NC=C2)N
How it was run: as §1

duvelisib = compound: C[C@H](Nc1ncnc2nc[nH]c12)c1cc2cccc(Cl)c2c(=O)n1-c1ccccc1 [duvelisib]
How it was run: as §1

gandotinib = compound: Cc1cc(Nc2cc(CN3CCOCC3)c3nc(C)c(Cc4ccc(Cl)cc4F)n3n2)n[nH]1 [gandotinib]
How it was run: as §1

tozasertib = compound: Cc1cc(Nc2cc(N3CCN(C)CC3)nc(Sc3ccc(NC(=O)C4CC4)cc3)n2)n[nH]1 [tozasertib]
How it was run: as §1

[4] = compound: Cc1cc(SCc2sc(-c3ccc(C(F)(F)F)cc3)nc2C)ccc1OCC(=O)O
How it was run: as §1

doramapimod = compound: Cc1ccc(-n2nc(C(C)(C)C)cc2NC(=O)Nc2ccc(OCCN3CCOCC3)c3ccccc23)cc1 [doramapimod]
How it was run: as §1

ispinesib = compound: Cc1ccc(C(=O)N(CCCN)[C@@H](c2nc3cc(Cl)ccc3c(=O)n2Cc2ccccc2)C(C)C)cc1 [ispinesib]
How it was run: as §1

bafetinib = compound: Cc1ccc(NC(=O)c2ccc(CN3CC[C@H](N(C)C)C3)c(C(F)(F)F)c2)cc1Nc1nccc(-c2cncnc2)n1 [bafetinib]
How it was run: as §1

[5] = compound: Cc1cccc(CC(=O)N2CCc3c2ccc(-c2cn(C)c4ncnc(N)c24)c3F)n1
How it was run: as §1

nilotinib = compound: Cc1cn(-c2cc(NC(=O)c3ccc(C)c(Nc4nccc(-c5cccnc5)n4)c3)cc(C(F)(F)F)c2)cn1 [nilotinib]
How it was run: as §1

[6] = compound: Cc1nc(Nc2n[nH]c3c2CN(C(=O)N[C@H](CN(C)C)c2ccccc2)C3(C)C)c2sccc2n1
How it was run: as §1

dasatinib = compound: Cc1nc(Nc2ncc(C(=O)Nc3c(C)cccc3Cl)s2)cc(N2CCN(CCO)CC2)n1 [dasatinib]
How it was run: as §1

[7] = compound: Cc1ncc(-c2ccnc(Nc3ccc(S(C)(=O)=O)cc3)n2)n1C(C)C
How it was run: as §1

[8] = compound: Cn1cc(-c2ccc3c(c2)CCN3C(=O)Cc2cccc(C(F)(F)F)c2)c2c(N)ncnc21
How it was run: as §1

[9] = compound: Cn1cc(-c2ccc3nnc(C(F)(F)c4ccc5ncccc5c4)n3n2)cn1
How it was run: as §1

tipifarnib = compound: Cn1cncc1[C@@](N)(c1ccc(Cl)cc1)c1ccc2c(c1)c(-c1cccc(Cl)c1)cc(=O)n2C [tipifarnib]
How it was run: as §1

mubritinib = compound: FC(F)(F)c1ccc(/C=C/c2nc(COc3ccc(CCCCn4ccnn4)cc3)co2)cc1 [mubritinib]
How it was run: as §1

Measured: log2 fold change

INPPL1 (UniProt O15357)
inactive: [1] -0.007 | crizotinib -0.299 | [2] 0.015 | [3] 0.095 | duvelisib 0.01 | gandotinib 0.026 | tozasertib -0.034 | [4] 0.059 | doramapimod 0.119 | ispinesib -0.131 | bafetinib -0.077 | [5] -0.093 | nilotinib -0.255 | [6] -0.083 | dasatinib -0.038 | [7] -0.115 | [8] -0.049 | [9] 0.066 | tipifarnib 0.059 | mubritinib 0.025

ITPK1 (UniProt Q13572)
inactive: [1] -0.005 | crizotinib 0.02 | [2] 0.024 | [3] -0.06 | duvelisib 0.08 | gandotinib 0.026 | tozasertib -0.097 | [4] -0.031 | doramapimod 0.005 | ispinesib 0.122 | bafetinib -0.071 | [5] 0.019 | nilotinib -0.024 | [6] 0.093 | dasatinib -0.073 | [7] -0.019 | [8] 0.106 | [9] -0.009 | tipifarnib 0.052 | mubritinib 0.076

INTS14 (UniProt Q96SY0)
inactive: [1] 0.034 | crizotinib -0.04 | [2] 0.084 | [3] -0.012 | duvelisib 0.032 | gandotinib 0.011 | tozasertib -0.017 | [4] 0.064 | doramapimod -0.028 | ispinesib 0.065 | bafetinib -0.051 | [5] 0.044 | nilotinib -0.016 | [6] -0.049 | dasatinib -0.054 | [7] -0.037 | [8] 0.059 | [9] 0.009 | tipifarnib 0.004 | mubritinib 0.021

IRF2BP2 (UniProt Q7Z5L9)
inactive: [1] 0 | crizotinib -0.076 | [2] -0.022 | [3] 0.019 | duvelisib 0.03 | gandotinib -0.06 | tozasertib -0.016 | [4] -0.002 | doramapimod 0.021 | ispinesib 0.041 | bafetinib -0.036 | [5] 0.041 | nilotinib 0.003 | [6] 0 | dasatinib -0.049 | [7] 0.003 | [8] 0.036 | [9] -0.041 | tipifarnib -0.06 | mubritinib 0.022

IST1 isoform 5 (UniProt P53990)
inactive: [1] -0.029 | crizotinib -0.08 | [2] 0.038 | [3] -0.054 | duvelisib 0.015 | gandotinib -0.085 | tozasertib -0.012 | [4] 0.074 | doramapimod -0.046 | ispinesib -0.149 | bafetinib -0.02 | [5] -0.012 | nilotinib -0.018 | [6] 0.008 | dasatinib -0.09 | [7] -0.042 | [8] 0.028 | [9] 0.006 | tipifarnib -0.079 | mubritinib 0.054

IGF2BP1 (UniProt Q9NZI8)
inactive: [1] -0.085 | crizotinib -0.054 | [2] -0.471 | [3] 0.388 | duvelisib -0.142 | gandotinib 0.256 | tozasertib 0.118 | [4] 0.103 | doramapimod 0.138 | ispinesib -0.371 | bafetinib 0.217 | [5] 0.015 | nilotinib -0.08 | [6] -0.496 | dasatinib 0.021 | [7] -0.088 | [8] -0.334 | [9] -0.243 | tipifarnib 0.131 | mubritinib -0.265

Looked up one by one from the list above, two records:
INTS14 (UniProt Q96SY0)
inactive: [1] 0.034 | crizotinib -0.04 | [2] 0.084 | [3] -0.012 | duvelisib 0.032 | gandotinib 0.011 | tozasertib -0.017 | [4] 0.064 | doramapimod -0.028 | ispinesib 0.065 | bafetinib -0.051 | [5] 0.044 | nilotinib -0.016 | [6] -0.049 | dasatinib -0.054 | [7] -0.037 | [8] 0.059 | [9] 0.009 | tipifarnib 0.004 | mubritinib 0.021

IST1 isoform 5 (UniProt P53990)
inactive: [1] -0.029 | crizotinib -0.08 | [2] 0.038 | [3] -0.054 | duvelisib 0.015 | gandotinib -0.085 | tozasertib -0.012 | [4] 0.074 | doramapimod -0.046 | ispinesib -0.149 | bafetinib -0.02 | [5] -0.012 | nilotinib -0.018 | [6] 0.008 | dasatinib -0.09 | [7] -0.042 | [8] 0.028 | [9] 0.006 | tipifarnib -0.079 | mubritinib 0.054

Next part

ISCA2 (UniProt Q86U28)
inactive: [1] 0.047 | crizotinib 0.087 | [2] 0.101 | [3] -0.101 | duvelisib 0.052 | gandotinib 0.036 | tozasertib 0.057 | [4] 0.06 | doramapimod 0.014 | ispinesib 0.026 | bafetinib -0.041 | [5] -0.023 | nilotinib 0.006 | [6] 0.011 | dasatinib -0.031 | [7] -0.02 | [8] 0.082 | [9] 0.06 | tipifarnib 0.063 | mubritinib 0.004

IL18 (UniProt Q14116)
inactive: [1] 0.011 | crizotinib 0.016 | [2] -0.032 | [3] -0.017 | duvelisib 0.068 | gandotinib -0.003 | tozasertib -0.057 | [4] -0.038 | doramapimod 0.002 | ispinesib 0.035 | bafetinib -0.045 | [5] -0.014 | nilotinib 0.017 | [6] 0.028 | dasatinib 0.006 | [7] 0.016 | [8] 0.038 | [9] -0.029 | tipifarnib -0.01 | mubritinib 0.036

INTS10 (UniProt Q9NVR2)
inactive: [1] 0 | crizotinib -0.001 | [2] 0.173 | [3] -0.052 | duvelisib 0.111 | gandotinib -0.166 | tozasertib -0.03 | [4] 0.076 | doramapimod -0.043 | ispinesib 0.001 | bafetinib -0.034 | [5] 0.035 | nilotinib 0.019 | [6] -0.034 | dasatinib -0.146 | [7] -0.006 | [8] 0.079 | [9] -0.012 | tipifarnib -0.009 | mubritinib 0.087

IMPDH2 (UniProt P12268)
inactive: [1] -0.027 | crizotinib 0.001 | [2] -0.118 | [3] 0.085 | duvelisib -0.04 | gandotinib -0.014 | tozasertib 0.039 | [4] 0.03 | doramapimod 0.022 | ispinesib -0.08 | bafetinib 0.088 | [5] 0.051 | nilotinib -0.031 | [6] 0.035 | dasatinib 0.045 | [7] -0.015 | [8] -0.104 | [9] -0.006 | tipifarnib 0.104 | mubritinib -0.045

INTS13 (UniProt Q9NVM9)
inactive: [1] 0.025 | crizotinib -0.063 | [2] 0.115 | [3] -0.013 | duvelisib 0.081 | gandotinib -0.015 | tozasertib -0.027 | [4] 0.102 | doramapimod -0.002 | ispinesib -0.035 | bafetinib -0.034 | [5] 0 | nilotinib -0.062 | [6] -0.082 | dasatinib -0.178 | [7] -0.069 | [8] 0.072 | [9] 0.129 | tipifarnib -0.048 | mubritinib 0.094

INTS4 (UniProt Q96HW7)
inactive: [1] -0.005 | crizotinib 0.038 | [2] 0.021 | [3] -0.06 | duvelisib 0.032 | gandotinib -0.036 | tozasertib 0.027 | [4] 0.018 | doramapimod -0.046 | ispinesib 0.094 | bafetinib -0.018 | [5] -0.005 | nilotinib 0.04 | [6] -0.03 | dasatinib -0.048 | [7] -0.048 | [8] 0.026 | [9] -0.023 | tipifarnib 0.048 | mubritinib 0.053

IGSF3 (UniProt O75054)
inactive: [1] -0.022 | crizotinib -0.02 | [2] 0.049 | [3] -0.022 | duvelisib 0.012 | gandotinib -0.046 | tozasertib -0.095 | [4] -0.008 | doramapimod -0.007 | ispinesib 0.001 | bafetinib -0.061 | [5] -0.062 | nilotinib -0.026 | [6] -0.004 | dasatinib -0.027 | [7] -0.021 | [8] -0.03 | [9] -0.035 | tipifarnib 0.094 | mubritinib 0.015

ITFG1 (UniProt Q8TB96)
inactive: [1] 0.008 | crizotinib 0.021 | [2] 0.042 | [3] 0.005 | duvelisib 0.106 | gandotinib 0.03 | tozasertib 0.117 | [4] -0.008 | doramapimod -0.004 | ispinesib 0.004 | bafetinib -0.057 | [5] -0.003 | nilotinib 0.065 | [6] -0.033 | dasatinib -0.28 | [7] 0.023 | [8] 0.025 | [9] -0.01 | tipifarnib 0.017 | mubritinib 0.011

ITGB5 (UniProt P18084)
inactive: [1] 0.021 | crizotinib 0.013 | [2] -0.016 | [3] 0.094 | duvelisib 0.028 | gandotinib 0.1 | tozasertib -0.003 | [4] -0.044 | doramapimod 0.033 | ispinesib 0 | bafetinib -0.057 | [5] -0.024 | nilotinib 0.002 | [6] 0.023 | dasatinib 0.092 | [7] -0.018 | [8] 0.007 | [9] 0.032 | tipifarnib 0.038 | mubritinib 0.102

IFI35 isoform 2 (UniProt P80217)
inactive: [1] 0.016 | crizotinib 0.03 | [2] 0.077 | [3] -0.084 | duvelisib 0.038 | gandotinib 0.11 | tozasertib 0.017 | [4] 0.006 | doramapimod -0.049 | ispinesib 0.027 | bafetinib -0.037 | [5] 0 | nilotinib 0.027 | [6] 0.006 | dasatinib -0.022 | [7] -0.027 | [8] 0.082 | [9] 0.032 | tipifarnib -0.03 | mubritinib 0.048
